Patent US10344049B2, “Substituted steroids for the treatment of cancer” (AQUAVAN TECHNOLOGY CO., LTD., priority 2017, dated 2019)
Some entries share one result that the patent states for a list of compounds. At least one compound was matched to its structure with a doubt left.

What was measured:
Format in all cases: cell-based
Details in all cases: grade of the IC50 of Table 2, read-out: evaluation of ability to inhibit cell growth activity (IC50)
[1] = system: human liver cancer cells Mahlavu; test: Cell viability test (Resazurin), Mahlavu cells
Procedure: (§1) Cell viability was determined with Resazurin (at a final concentration of 25 μg/mL).

[2] = system: human breast cancer cells MDA-MB-468; test: Cell viability test (Resazurin), MDA-MB-468 cells
Procedure: as §1

[3] = system: human colorectal cancer cells SW-480; test: Cell viability test (Resazurin), SW480 cells
Procedure: as §1

Measured: IC50

CC(=O)O[C@H]1C=C2[C@@H](CC[C@H](O)C2(C)C)[C@]2(C=O)CC[C@]3(C)[C@@H]([C@H](C)C[C@@H](O)C=C(C)C)CC[C@@]3(C)[C@H]12 [Compound 8]
8 to 16 µM: all assays above
